Screening data, single-dose tests

Sequences of proteins named here, by UniProt entry; tags and fusion partners are left off. Residues count along the entry.
UniProt A4I591, 1-473: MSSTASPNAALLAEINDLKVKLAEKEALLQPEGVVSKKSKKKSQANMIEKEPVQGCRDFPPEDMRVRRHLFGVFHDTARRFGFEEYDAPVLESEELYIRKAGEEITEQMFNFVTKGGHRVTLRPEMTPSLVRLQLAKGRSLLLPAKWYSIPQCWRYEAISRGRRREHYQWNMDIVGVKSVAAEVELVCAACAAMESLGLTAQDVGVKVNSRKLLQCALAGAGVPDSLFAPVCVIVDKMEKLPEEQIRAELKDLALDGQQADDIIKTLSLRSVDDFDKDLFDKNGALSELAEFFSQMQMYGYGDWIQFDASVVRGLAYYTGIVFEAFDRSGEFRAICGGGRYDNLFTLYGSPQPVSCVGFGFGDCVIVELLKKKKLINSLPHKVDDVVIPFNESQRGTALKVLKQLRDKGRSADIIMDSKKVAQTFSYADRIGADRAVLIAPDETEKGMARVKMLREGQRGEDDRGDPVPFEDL
UniProt P9WPC5, whole entry: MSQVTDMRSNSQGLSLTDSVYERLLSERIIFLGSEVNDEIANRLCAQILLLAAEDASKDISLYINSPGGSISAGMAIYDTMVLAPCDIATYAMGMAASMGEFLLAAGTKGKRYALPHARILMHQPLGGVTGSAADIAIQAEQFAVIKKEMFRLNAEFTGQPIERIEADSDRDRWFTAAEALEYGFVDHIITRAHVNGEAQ
UniProt P9WPC3, whole entry partner: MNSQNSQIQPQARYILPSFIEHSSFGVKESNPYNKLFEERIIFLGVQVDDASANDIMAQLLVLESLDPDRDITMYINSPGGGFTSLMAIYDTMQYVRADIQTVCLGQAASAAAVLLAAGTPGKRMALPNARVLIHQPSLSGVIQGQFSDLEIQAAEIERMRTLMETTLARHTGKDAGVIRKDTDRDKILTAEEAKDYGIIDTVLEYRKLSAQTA
UniProt Q4DA54, 1-478: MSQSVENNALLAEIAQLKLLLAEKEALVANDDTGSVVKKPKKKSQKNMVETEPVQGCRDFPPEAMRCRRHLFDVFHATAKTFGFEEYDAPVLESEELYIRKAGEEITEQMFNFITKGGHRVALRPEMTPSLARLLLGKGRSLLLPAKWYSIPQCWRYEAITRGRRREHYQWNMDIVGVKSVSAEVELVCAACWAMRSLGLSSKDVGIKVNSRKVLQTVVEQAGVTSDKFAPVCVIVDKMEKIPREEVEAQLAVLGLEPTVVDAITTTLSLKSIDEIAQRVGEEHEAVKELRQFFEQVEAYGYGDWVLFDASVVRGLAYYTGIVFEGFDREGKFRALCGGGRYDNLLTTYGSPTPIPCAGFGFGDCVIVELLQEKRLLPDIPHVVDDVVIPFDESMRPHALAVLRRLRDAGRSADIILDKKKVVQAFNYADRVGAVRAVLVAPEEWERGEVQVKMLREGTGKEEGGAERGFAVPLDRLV

The values are deposited in ChEMBL (CHEMBL3988442, “University of Dundee, Small-Polar-MMV Screening Library” (2021)).

A: 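Assay of Toxoplasma gondii numbers, read through their beta-galactosidase reporter with a colour substrate. Compounds at 10 µM. Higher reads as fewer parasites (inferred from which compounds were picked for retests). About 67,000 compounds were tested under these conditions; 0.38% (about 260) showed 50% or more at least once.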
B: 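Whole-parasite assay of Trypanosoma brucei over 72 hours; the read-out is not stated. Concentration: 30 µM. Direction is inferred from retests: higher values go with stronger inhibition. Values scatter widely below zero; nearly all retest evidence comes from the higher of the two concentrations used. Of about 64,000 compounds tested this way, about 940 (1.5%) reached 50% or more in at least one test.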
C: 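Enzyme assay of histidyl-tRNA synthetase; the read-out is not stated. Target: Histidine-tRNA ligase, Leishmania infantum (UniProt A4I591). Concentration: 30 µM. Higher reads as stronger inhibition (inferred: compounds with an IC50 in retests scored well above the rest). The assay is labelled LdHisRS but filed under L. infantum. Of about 69,000 compounds tested this way, about 410 (0.6%) reached 50% or more in at least one test.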
D: 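ClpP1P2, Mycobacterium tuberculosis (UniProt P9WPC5 and UniProt P9WPC3). Protease assay of ClpP1P2, read by the AMC dye that it sets free. Compounds at 50 µM. Direction is inferred from only a few compounds that gave an IC50; most scored high, so higher reads as stronger inhibition. Most other retested compounds had strongly negative values. Size under these conditions: about 69,000 compounds, about 10 of them at 50% or above in at least one test.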
E: 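Histidine-tRNA ligase, Trypanosoma cruzi CL Brener (UniProt Q4DA54). Enzyme assay of histidyl-tRNA synthetase; the read-out is not stated. Tested at 30 µM. Direction is inferred from retests: higher values go with stronger inhibition. Of about 69,000 compounds tested this way, about 31 (0.045%) reached 50% or more in at least one test.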

Each number is a percent effect as filed.
The controls that fix the scale are not given in the record; negative values are as filed.
The compounds are a random part of those screened.
A dash means the value is not listed here; it may have been measured.

Compound	A	B	C	D	E
Cc1cc(CN2C[C@@H]3CN(C(=O)c4cccn4C)CCO[C@@H]3C2)no1	-	-	1.754	-14.58	5.464
O=C(NC1CCC1)[C@@H]1C[C@@H]2CCN(Cc3cccs3)C[C@@H]2O1	-	-	9.489	-6.228	4.918
O=C(O)C(F)(F)F.O=C(c1ccco1)N1CCOCC2(CCN(C3CCOCC3)C2)C1 (stereo unspecified)	-6.695	-22.07	-	-	-
CC(C)c1nc(/C=C/c2ccc(O)c(Cl)c2)ncc1C(=O)O	0.2988	-9.632	15.25	-14.95	4.39
COc1ccc(CNC(=O)NCc2nc(C)c(C)s2)cn1	16.05	-20.39	31.43	2.102	10.39
CC1(C)CC2(CCO1)NC(=O)c1cc(Br)ccc1-n1nnnc12 (stereo unspecified)	10.82	-36.08	6.195	-13.25	2.212
CC(C)N(C)Cc1nnn2c1CN(Cc1cccnc1)CCC2.O=C(O)C(F)(F)F.O=C(O)C(F)(F)F.O=C(O)C(F)(F)F	11.17	-30.31	-	-	-
O=C(O)C(F)(F)F.[H][C@@]12CCCO[C@]1([H])[C@H](NC(=O)c1cnccn1)CN(C1CCCC1)C2	0.1127	-5.107	-	-	-
COc1cc(COCC2CCN(Cc3ccccn3)CC2)cc(OC)c1.O=C(O)C(=O)O	-17.16	-13.55	-	-	-
CNCC(=O)N1CC(c2cc(Nc3ncccn3)nc(C)n2)C1	-	-	10.95	6.087	6.011
CCc1nc(C2CCCN2C(=O)CCn2cncn2)no1 (stereo unspecified)	1.335	0.8248	-3.125	7.804	2.662
CCc1cnc(NC(=O)NC2CCN(C3CCCC3)CC2)s1	-9.779	-2.951	16.87	-9.038	12.71
Cc1cc(CN2CCCC2c2noc(C3CC3)n2)c2ccccc2n1 (stereo unspecified)	16.16	8.829	36.92	-8.276	9.579
OCC(CO)N1CCC(c2nnc(Cn3ccnc3)n2C2CC2)CC1	-27.42	-51.37	15	11.37	4.545
Cc1ccc(CN(C)C(=O)CN2CCCC(Cn3cncn3)C2)cc1 (stereo unspecified)	-19.93	-	17.31	-10.2	3.429
O=S(=O)(Nc1ccc2c(c1)OCCO2)N1CCCCC1	-3.475	-39.59	6.024	-15.67	-0.4975
NC(=O)c1cn[nH]c1C1CCCN1C(=O)c1ccccc1 (stereo unspecified)	-	-	9.859	-12.77	4.615
Cc1cccnc1NC(=O)NC(C)Cn1cccn1 (stereo unspecified)	2.118	-22.68	5.479	2.389	3.817
Cn1cc(C[C@H]2[C@H](N3CCOCC3)CCN2C(=O)c2ccco2)cn1	-	-	8.029	2.753	7.104
Cc1nc(CNC(=O)N(Cc2ccccc2)CC(C)(C)O)oc1C	3.898	-12.95	9.091	-12.34	1.478
O=C([C@@H]1CCO[C@@H]2CCN(CC3CC3)C[C@H]21)N1CCCC1	-	-	18	13.75	5.155
CN1C(=O)CCCC12CCCN(Cc1cccs1)C2 (stereo unspecified)	-	-	9.615	-10.73	3.883
CCOc1ccc(S(=O)(=O)NCCc2ccc(N(C)C)cc2)cc1C	-55.73	5.951	10.43	9.517	11.34
CC(C)c1cc(CN(C)C(=O)C(C)N2CCc3ccccc3C2)no1 (stereo unspecified)	43.01	-38.81	-1.099	23.21	7.921
CNCc1nc(-c2ccc3c(c2)OCO3)c[nH]1	-	-	11.61	-14.26	8.621
CC(C)(C)CN(CCO)C(=O)Nc1cccc(N2CCNC2=O)c1	-37.52	-61.04	17.78	-1.459	9.091
Cc1cnn(CC2CCCCN2C(=O)c2ccnc(N(C)C)c2)c1 (stereo unspecified)	-0.6497	-25.14	10.67	2.666	-1.132
NC(=O)N1CCC2(CC1)CN(c1ccsc1)C(=O)CO2	3.938	-19.42	3.65	10.48	6.011
CN(C)c1ccc2c(c1)CN(C(=O)c1cnccn1)C2c1cnco1 (stereo unspecified)	3.138	-81.81	-3.419	9.55	3.681
c1ccc(N2CC[C@@H]3CN(Cc4ccncc4)CCO[C@@H]3C2)cc1	-	-	44.74	-5.017	22.99
COc1ccccc1CC(=O)N1CCCC(n2nc(C)cc2C)C1 (stereo unspecified)	-	-42.64	-7.865	-12.45	6.015
CN(C)C(=O)C1(c2cnccn2)CCCN1C(=O)Cc1ccsc1 (stereo unspecified)	-6.223	-15.09	14.49	-3.944	7.576
COc1ccc(CN(Cc2ccsc2)CC2CCCO2)cn1 (stereo unspecified)	14.96	-51.21	8.333	-9.515	2.609
CCN1CCCC12CCCN(c1ncccn1)C2 (stereo unspecified)	-	-	4.425	-7.133	2.151
COCC(=O)N1C[C@H]2CC[C@@]3(N=C(c4ccccc4)NC3=O)[C@H]2C1	-	-	5.714	-9.714	1.961
[H][C@@]12C[C@H](c3nnc(C)o3)CN(S(=O)(=O)CC)[C@]1([H])CCO2	5.585	-35.34	-	-	-
O=C(O)C(F)(F)F.[H][C@@]12C[C@H](C(=O)NC)[C@@]([H])(CN(Cc3ccccc3)C1)O2	-12.33	0.1079	-	-	-
CNC(=O)[C@@H]1C[C@H](N)CN1S(=O)(=O)c1cc(C)c(Cl)cc1C	-4.323	1.612	9.677	-6.939	-2.618
Cc1cc2nc(SCC(=O)N3CCOCC3)n(CC(C)C)c(=O)c2[nH]1	3.369	-1.114	17.14	13.27	1.087
CCN(CC)C(=O)c1ccc(Cl)c(NC(=O)c2cc(C(C)C)on2)c1	-4.866	10.9	6.993	-7.033	1.493
O=C(O)C1(Cc2ccccc2Cl)CCN(c2ncccc2F)CC1	-6.578	-9.058	30.77	6.152	5.833
COc1ccccc1OCCCN1CCNC1=O	-12.96	-18.42	9.524	-8.912	7.921

The last 2 entries again:

Compound	A	B	C	D	E
O=C(O)C1(Cc2ccccc2Cl)CCN(c2ncccc2F)CC1	-6.578	-9.058	30.77	6.152	5.833
COc1ccccc1OCCCN1CCNC1=O	-12.96	-18.42	9.524	-8.912	7.921